Assay: in vitro
Settings: human, hela cells, % viability

Row | SMILES | viability at 28.5 h, 10 µM [%]
1 | CCN1CCN(C(=O)c2cc3ccccc3[nH]2)CC1 [CBK200247] | 89.2
2 | O=C(c1cccc([N+](=O)[O-])c1)C12CN3CN(CN(C3)C1)C2 [CBK261142] | 98.6
3 | Cc1ccccc1NC(=O)CCC(=O)N/N=C/c1cccnc1 [CBK261970] | 90.7

Reference: publication PMC12040169 (PLOS Biology, 2025)
